Measurements published in patent US20160000777A1, “METHODS OF USING HISTAMINE RECEPTOR AGONISTS AND ANTAGONISTS” (UNIVERSITY OF ROCHESTER, priority 2013, published 2016).

Tested on: primary human keratinocytes (PHK)
Assay: Transepithelial electric resistance (TEER) in cultured primary human keratinocytes
Format: cell-based
Settings: antagonist with histamine, Cetirizine 10 μM, JNJ7777120 10 μM, Cimetidine 100 μM, n=4, FIGS. 4A, 5A
Source text: Selective antagonists were used for each receptor: […] Selective antagonists were used for each receptor: […]

SMILES: O=C(O)COCCN1CCN(C(c2ccccc2)c2ccc(Cl)cc2)CC1 (stereo not shown) [Cetirizine]
- Block of histamine-mediated TEER reduction (AUC): blocks
